Results deposited as PubChem BioAssay AID743454 (Peter MacCallum Cancer Centre, 2014)
Screen: 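Knock-downs lowering viability or raising caspase 3/7 activity in vorinostat-treated resistant cells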 (primary screen). Cell system: human HCT116-VR colon cancer cells, selected for vorinostat resistance. Reagents: siRNA pool against human genes, 40 nM siRNA pool. Time to read-out: vorinostat for 24 h, read-out about 72 h after transfection. Conditions: vorinostat at 2.5 µM final. Detection: 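Cell viability by CellTiter-Fluor and caspase 3/7 activity by luminescence, each scaled to mock wells per plate, duplicates averaged, then robust z-scored over all plates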. Reading the numbers: viability robust z-score: higher = more viable cells than screen typical; caspase robust z-score: higher = more caspase 3/7 activity than screen typical. Call rule: 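a knock-down is a hit when classed RV1 or RV2 for lowered viability, or CA1 or CA2 for caspase activation; those lethal without drug were dropped; hits were retested singly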.
This is an unselected part of about 18,000 reagents tested. 450 of all reagents (2.5%) count as active. 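Single biological run; no consistent viability z cut-off exists, so the class columns, not z-scores, define the calls.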 Entries without a mark were called inactive.

no.	Target gene	viability hit class	caspase hit class	viability robust z-score	caspase robust z-score
1	TRIP13 (thyroid hormone receptor interactor 13)	no change	no change	-0.36	0.21
2	MECR (mitochondrial trans-2-enoyl-CoA reductase)	no change	no change	-1.49	2.98
3	EPHX3 (epoxide hydrolase 3)	no change	no change	-0.56	1.46
4	PLEKHA1 (pleckstrin homology domain containing A1)	no change	no change	0.73	0.6
5	COMMD3 (COMM domain containing 3)	no change	no change	0.41	-0.2
6	TMEM237 (transmembrane protein 237)	no change	no change	0.82	0.01
7	FPGS (folylpolyglutamate synthase)	no change	no change	-0.71	3.72
8	TSPAN1 (tetraspanin 1)	no change	no change	0.86	-0.88
9	NUDT4 (nudix hydrolase 4)	no change	no change	1.57	1.2
10	C3 (complement C3)	no change	no change	0.65	-0.25
11	TMEM182 (transmembrane protein 182)	no change	no change	0.38	-0.94
12	NIT1 (nitrilase 1)	no change	no change	-0.93	-0.88
13	WAC (WW domain containing adaptor with coiled-coil)	no change	no change	-0.19	1.29
14	GZMB (granzyme B)	no change	no change	-1.58	3.05
15	ITIH3 (inter-alpha-trypsin inhibitor heavy chain 3)	no change	no change	0.64	0.12
16	A2M (alpha-2-macroglobulin)	no change	no change	-0.22	1.75
17	PRAMEF16 (retired record)	no change	no change	-1.3	2.02
18	DAZ1 (deleted in azoospermia 1)	no change	no change	-0.61	0.18
19	ZNF497 (zinc finger protein 497)	no change (active)	CA1 (caspase activation)	0.23	5.82
20	SEMA7A (semaphorin 7A (JohnMiltonHagen blood group))	no change	no change	0.59	-0.24
21	CRYBA1 (crystallin beta A1)	no change	no change	0.68	0.11
22	C1orf210 (chromosome 1 open reading frame 210)	no change (active)	CA2 (caspase activation)	-2.34	6.74
23	OR1K1 (olfactory receptor family 1 subfamily K member 1)	no change	no change	0.99	0.2
24	METTL21A (methyltransferase 21A, HSPA lysine)	no change	no change	1.25	-0.24
25	ASXL1 (ASXL transcriptional regulator 1)	no change	no change	0.29	-1.02
26	PRSS16 (serine protease 16)	no change	no change	0.98	-0.93
27	C8orf58 (chromosome 8 open reading frame 58)	no change	no change	0.42	-0.52
28	PCDHB14 (protocadherin beta 14)	no change	no change	1.06	-0.29
29	MAGEA9B (MAGE family member A9B)	no change	no change	0.54	-0.96
30	PRXL2C (peroxiredoxin like 2C)	no change	no change	0.27	-0.04
31	CFAP52 (cilia and flagella associated protein 52)	no change	no change	-0.42	1.58
32	RPS6 (ribosomal protein S6)	no change	no change	-3.98	-1.62
33	PTDSS1 (phosphatidylserine synthase 1)	no change	no change	0.16	0.86
34	SRM (spermidine synthase)	no change	no change	0.57	1.84
35	CEACAM4 (CEA cell adhesion molecule 4)	no change	no change	-0.08	-0.22
36	CD8A (CD8 subunit alpha)	no change	no change	0.74	3.68
37	CRLF2 (cytokine receptor like factor 2)	no change	no change	0.4	2.74
38	NOC4L (nucleolar complex associated 4 homolog)	no change	no change	-1.16	-0.53
39	GLA (galactosidase alpha)	no change	no change	-0.3	0.55

Entries above whose target name begins with M or m:
Target gene	viability hit class	caspase hit class	viability robust z-score	caspase robust z-score
MECR (mitochondrial trans-2-enoyl-CoA reductase)	no change	no change	-1.49	2.98
METTL21A (methyltransferase 21A, HSPA lysine)	no change	no change	1.25	-0.24
MAGEA9B (MAGE family member A9B)	no change	no change	0.54	-0.96
